# Values quoted from earlier work as cited in patent US20210393628A1, “COMPOSITIONS AND METHODS FOR MODULATING T CELL EXHAUSTION” (The Board of Trustees of the Leland Stanford Junior …, priority 2018, published 2021).
# At least one compound was matched to its structure with a doubt left.
# Test system: CAR T cells
# Settings: co-cultured with tumor cells; cited from earlier work
structure (smiles),measurement,value
Cc1ccc(C(=O)Nc2ccc(CN3CCN(C)CC3)c(C(F)(F)F)c2)cc1C#Cc1cnc2cccnn12 [ponatinib],activation and degranulation,attenuated
same,cytokine secretion,fail to secrete cytokine
same,killing in response to tumor antigen,attenuated killing
